Experimental findings from the supplement of paper PMC4604168 (melanoma cell lines) are described below.

Structures are written as SMILES. Some of the results follow. Many values rest on one well or one pass, so single values are uncertain.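 Imaging used 1,536-well plates; nuclei positive for cleaved PARP by antibody were divided by total DNA-stained nuclei to yield the apoptosis fraction. Doses for screening kept most cells viable, and cell lines differ markedly in resting and induced cleaved-PARP levels.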

For the first assay, the system named is A375. Put plainly: cleaved PARP positive nuclei fraction relative to DMSO control; melanoma cells; higher = more apoptosis. Particulars: library dose: low library concentration; 72 h.
As for `Cn1sc(=O)n(Cc2ccccc2)c1=O` + C=CCNC1=C2C[C@@H](C)C[C@H](OC)[C@H](O)[C@@H](C)/C=C(\C)[C@H](OC(N)=O)[C@@H](OC)/C=C\C=C(/C)C(=O)NC(=CC1=O)C2=O [Tanespimycin] (first compound 0.4 µM, partner dose 0.002 µM), the “cleaved PARP positive nuclei fraction” value is 59.6%. As for `CCCCCCCCc1ccc(CCC(N)(CO)CO)cc1` [fingolimod] + CC(C)(C)c1cnc(CSc2cnc(NC(=O)C3CCNCC3)s2)o1 [SNS-032] (first compound 2 µM, partner dose 0.01 µM), the “cleaved PARP positive nuclei fraction” value amounted to 172%. Same read-out and setting: the figure for `NC(=O)c1ccc(N(C(N)=O)c2c(F)cccc2F)nc1-c1ccc(F)cc1F` + COCC[n+]1c2c(n(Cc3cnccn3)c1C)C(=O)c1ccccc1C2=O [YM155] (first compound 0.4 µM, partner dose 0.0004 µM) is 118%. Same read-out and setting: for `NC1(c2ccc(-c3nc4ccn5c(=O)[nH]nc5c4cc3-c3ccccc3)cc2)CCC1` + CO[C@@H]1[C@H](N(C)C(=O)c2ccccc2)C[C@H]2O[C@]1(C)n1c3ccccc3c3c4c(c5c6ccccc6n2c5c31)C(=O)NC4 [Midostaurin] (first compound 0.4 µM, partner dose 0.08 µM) the value was 296%. The same measure, in the same setting: for `CC1(C)CCC(c2ccc(Cl)cc2)=C(CN2CCN(c3ccc(C(=O)NS(=O)(=O)c4ccc(N[C@H](CCN5CCOCC5)CSc5ccccc5)c(S(=O)(=O)C(F)(F)F)c4)cc3)CC2)C1` + Cn1nnc2c(C(N)=O)ncn2c1=O [temozolomide] (first compound 0.4 µM, partner dose 2 µM) the value was 202%; for `CN(c1ncccc1CNc1nc(Nc2ccc3c(c2)CC(=O)N3)ncc1C(F)(F)F)S(C)(=O)=O` + CO[C@@H]1[C@H](N(C)C(=O)c2ccccc2)C[C@H]2O[C@]1(C)n1c3ccccc3c3c4c(c5c6ccccc6n2c5c31)C(=O)NC4 [Midostaurin] (first compound 0.08 µM, partner dose 0.08 µM), 99.9%; for `Cn1cnc2c(F)c(Nc3ccc(Br)cc3Cl)c(C(=O)NOCCO)cc21` [selumetinib] + OCCn1cc(-c2cnc3nnn(Cc4ccc5ncccc5c4)c3n2)cn1 [PF04217903] (first compound 0.015 µM, partner dose 1 µM), 270%.

The test system of the next assay is C32. The assay is described as above. Particulars: library dose: low library concentration; 72 h.
For `C[C@]1(O)C[C@@H](c2nc(-c3ccc4ccc(-c5ccccc5)nc4c3)c3c(N)nccn32)C1` + C[C@@H]1CCN(C(=O)CC#N)C[C@@H]1N(C)c1ncnc2[nH]ccc12 [CP690550] (first compound 0.4 µM, partner dose 1 µM), the “cleaved PARP positive nuclei fraction” value worked out at 98.3%. Still for that read-out and setting: the figure for `Cn1sc(=O)n(Cc2ccccc2)c1=O` + NCC(=O)Nc1ccc(-n2nc(C(F)(F)F)cc2-c2ccc3c(ccc4ccccc43)c2)cc1 [OSU03012] (first compound 0.4 µM, partner dose 1 µM) is 45%.

With `Cn1sc(=O)n(Cc2ccccc2)c1=O` + COc1cc2ncnc(Nc3ccc(Oc4ccccc4)cc3)c2cc1OC [SrcI1] (first compound 0.4 µM, partner dose 2 µM), the “cleaved PARP positive nuclei fraction” value is 39.7%.

In the case of `Cn1cnc2c(F)c(Nc3ccc(Br)cc3Cl)c(C(=O)NOCCO)cc21` [selumetinib] + Oc1nc(-c2ccc(C(F)(F)F)cc2)nc2c1CSCC2 [XAV939] (first compound 0.015 µM, partner dose 2 µM), the “cleaved PARP positive nuclei fraction” value is 43%. As for `CCCCCCCCc1ccc(CCC(N)(CO)CO)cc1` [fingolimod] + O=C(CCCCCCC(=O)Nc1ccccc1)NO [vorinostat] (first compound 2 µM, partner dose 0.08 µM), the “cleaved PARP positive nuclei fraction” value was found to be 91.2%. Same read-out and setting: for `NC1(c2ccc(-c3nc4ccn5c(=O)[nH]nc5c4cc3-c3ccccc3)cc2)CCC1` + COc1cc2ncnc(Nc3ccc(Oc4ccccc4)cc3)c2cc1OC [SrcI1] (first compound 0.4 µM, partner dose 2 µM) the value was 84.1%. Same read-out and setting: the figure for `CCCCCCCCc1ccc(CCC(N)(CO)CO)cc1` [fingolimod] + Cc1ccc(NC(=O)c2cccc(N(C)C)c2)cc1NC(=O)c1ccc(O)cc1 [ZM336372] (first compound 2 µM, partner dose 2 µM) is 151%; for `Cn1sc(=O)n(Cc2ccccc2)c1=O` + Cn1cc(/C=C2\C(=O)Nc3cccnc32)c2ccccc21 [GW441756] (first compound 0.4 µM, partner dose 0.4 µM) it is 86.9%; for `CCN(CC)CCNC(=O)c1c(C)[nH]c(/C=C2\C(=O)Nc3ccc(F)cc32)c1C` [sunitinib] + CC1(C)NC(=O)N(c2ccc([N+](=O)[O-])c(C(F)(F)F)c2)C1=O [nilutamide] (first compound 0.4 µM, partner dose 1 µM) it is 50.2%. The same measure, in the same setting: for `CN(c1ncccc1CNc1nc(Nc2ccc3c(c2)CC(=O)N3)ncc1C(F)(F)F)S(C)(=O)=O` + COc1cc2c(Oc3ccc4[nH]c(C)cc4c3F)ncnc2cc1OCCCN1CCCC1 [cediranib] (first compound 0.08 µM, partner dose 0.4 µM) the value was 176%. Turning to `C[C@@H](N)c1ccc(C(=O)Nc2ccnc3[nH]ccc23)cc1` + COc1cc2ncnc(Nc3ccc(Oc4ccccc4)cc3)c2cc1OC [SrcI1] (first compound 0.4 µM, partner dose 2 µM), the “cleaved PARP positive nuclei fraction” value was 83.8%. Same read-out and setting: the figure for `CCCCCCCCc1ccc(CCC(N)(CO)CO)cc1` [fingolimod] + Oc1cc(-c2nc(-c3ccccc3)[nH]c2-c2ccncc2)ccc1Cl [L779450] (first compound 2 µM, partner dose 0.2 µM) is 45.7%; for `C[C@@H](N)c1ccc(C(=O)Nc2ccnc3[nH]ccc23)cc1` + O=S(=O)(c1ccccc1)N(CC(F)(F)F)c1ccc(C(O)(C(F)(F)F)C(F)(F)F)cc1 [T0901317] (first compound 0.4 µM, partner dose 1.4 µM) it is 155%; for `CN(c1ncccc1CNc1nc(Nc2ccc3c(c2)CC(=O)N3)ncc1C(F)(F)F)S(C)(=O)=O` + O=c1cc(-c2cccc3c2Sc2ccccc2S3)oc(N2CCOCC2)c1 [KU55933] (first compound 0.08 µM, partner dose 1 µM) it is 924%. The same measure, in the same setting: for `C[C@]1(O)C[C@@H](c2nc(-c3ccc4ccc(-c5ccccc5)nc4c3)c3c(N)nccn32)C1` + CCc1ccc(CCOc2ccc(CC3SC(=O)NC3=O)cc2)nc1 [pioglitazone] (first compound 0.4 µM, partner dose 2 µM) the value was 38.5%. Take `C[C@]1(O)C[C@@H](c2nc(-c3ccc4ccc(-c5ccccc5)nc4c3)c3c(N)nccn32)C1` + COc1ccc2c(c1)CCC1C2CCC2(C)C(NCCCCCCN3C(=O)C=CC3=O)CCC12 [U73122] (first compound 0.4 µM, partner dose 0.4 µM): the “cleaved PARP positive nuclei fraction” value turned out to be 40%.

Take `C[C@]1(O)C[C@@H](c2nc(-c3ccc4ccc(-c5ccccc5)nc4c3)c3c(N)nccn32)C1` + O=C1NC(=O)/C(=C/c2ccc(-c3ccc(F)cc3O)o2)S1 [AS252424] (first compound 0.4 µM, partner dose 1 µM): the “cleaved PARP positive nuclei fraction” value stood at 149%. As to `CC1(C)CCC(c2ccc(Cl)cc2)=C(CN2CCN(c3ccc(C(=O)NS(=O)(=O)c4ccc(N[C@H](CCN5CCOCC5)CSc5ccccc5)c(S(=O)(=O)C(F)(F)F)c4)cc3)CC2)C1` + O=C(Nc1cccc(Cl)c1)Nc1ncc(CCNc2ncnc3ccsc23)s1 [SNS314] (first compound 0.4 µM, partner dose 0.0008 µM), the “cleaved PARP positive nuclei fraction” value worked out at 365%.

Take `C[C@]1(O)C[C@@H](c2nc(-c3ccc4ccc(-c5ccccc5)nc4c3)c3c(N)nccn32)C1` + O=C(Nc1ccccc1)c1cc([N+](=O)[O-])ccc1Cl [GW9662] (first compound 0.4 µM, partner dose 2 µM): the “cleaved PARP positive nuclei fraction” value was found to be 37.8%. Same read-out and setting: the figure for `NC1(c2ccc(-c3nc4ccn5c(=O)[nH]nc5c4cc3-c3ccccc3)cc2)CCC1` + Cc1cc(N2CCOCC2)cc2[nH]c(-c3c(NC[C@@H](O)c4cccc(Cl)c4)cc[nH]c3=O)nc12 [BMS536924] (first compound 0.4 µM, partner dose 0.2 µM) is 202%; for `CCN(CC)CCNC(=O)c1c(C)[nH]c(/C=C2\C(=O)Nc3ccc(F)cc32)c1C` [sunitinib] + O=c1cc(-c2cccc3c2Sc2ccccc2S3)oc(N2CCOCC2)c1 [KU55933] (first compound 0.4 µM, partner dose 1 µM) it is 90.5%; for `CS(=O)(=O)c1ccc(C(=O)Nc2ccc(Cl)c(-c3ccccn3)c2)c(Cl)c1` [vismodegib] + CN(NC(=O)CC(=O)NN(C)C(=S)c1ccccc1)C(=S)c1ccccc1 [STA4783] (first compound 1 µM, partner dose 0.006 µM) it is 74.7%.

With `Cn1cnc2c(F)c(Nc3ccc(Br)cc3Cl)c(C(=O)NOCCO)cc21` [selumetinib] + C=CCNC1=C2C[C@@H](C)C[C@H](OC)[C@H](O)[C@@H](C)/C=C(\C)[C@H](OC(N)=O)[C@@H](OC)/C=C\C=C(/C)C(=O)NC(=CC1=O)C2=O [Tanespimycin] (first compound 0.015 µM, partner dose 0.002 µM), the “cleaved PARP positive nuclei fraction” value came to 101%. Still for that read-out and setting: the figure for `Cn1cnc2c(F)c(Nc3ccc(Br)cc3Cl)c(C(=O)NOCCO)cc21` [selumetinib] + O=S(=O)(c1ccccc1)N(CC(F)(F)F)c1ccc(C(O)(C(F)(F)F)C(F)(F)F)cc1 [T0901317] (first compound 0.015 µM, partner dose 1.4 µM) is 41.5%. On the same count and under the same terms, for `NC1(c2ccc(-c3nc4ccn5c(=O)[nH]nc5c4cc3-c3ccccc3)cc2)CCC1` + O=C(O)C(=O)Nc1sc2c(c1C(=O)O)CCNC2 [TCS401] (first compound 0.4 µM, partner dose 1.66667 µM) the value was 97.1%.
